The molecules below were run on MES test (electrical stimulus through corneal electrodes). Settings: mouse, in vivo.
Design: species or system male ICR mice

SMILES	PI(TD50/ED50 in MES)
CC(OC(N)=O)C(O)c1ccccc1Cl (racemic) [Compound 3, 1-(2-chlorophenyl)-1-hydroxypropyl-2-carbamate]	12.0
C[C@@H](OC(N)=O)[C@H](O)c1ccccc1Cl [Compound 2, 1-(2-chlorophenyl)-(R)-1-hydroxypropyl-(R)-2-carbamate]	7.3
C[C@H](OC(N)=O)[C@H](O)c1ccccc1Cl [Compound 5, 1-(2-chlorophenyl)-(R)-1-hydroxypropyl-(S)-2-carbamate]	3.3
C[C@H](OC(N)=O)[C@@H](O)c1c(Cl)cccc1Cl [Compound 37, 1-(2,6-dichlorophenyl)-(S)-1-hydroxypropyl-(S)-2-carbamate]	5.1
